Patent publication US20230287070A1, “NOVEL TUMOR-SPECIFIC ANTIGENS FOR ACUTE MYELOID LEUKEMIA (AML) AND USES THEREOF” (UNIVERSITE DE MONTREAL, priority 2020, published 2023)

The sequences below were run on AML specimens vs MPCs (assay: Fold change of RNA expression between AML specimens and MPCs).
Set-up: species or system human

Sequence	AML/MPC
NVNRPLTMK (listed as Homo sapiens)	12.37
VTDLLALTV (listed as Homo sapiens)	10.81
LPIASASLL (listed as Homo sapiens)	0.9415
GLYYKLHNV (listed as Homo sapiens)	13.53
SRIHLVVL (listed as Homo sapiens)	60.2848
VSRNYVLLI (listed as Homo sapiens)	4.908
DRELRNLEL (listed as Homo sapiens)	106.7
IALYKQVL (listed as Homo sapiens)	0.8416
LGGAWKAVF (listed as Homo sapiens)	1.398
HQLYRASAL (listed as Homo sapiens)	9.736
GGSLIHPQW (listed as Homo sapiens)	11.49
ISLIVTGLK (listed as Homo sapiens)	9.245
RTPKNYQHW (listed as Homo sapiens)	53.72
KAFPFHIIF (listed as Homo sapiens)	8.766
KPMPTKVVF (listed as Homo sapiens)	20.75
DLMLRESL (listed as Homo sapiens)	0.5437
LYFLGHGSI (listed as Homo sapiens)	0.2549
LSHPAPSSL (listed as Homo sapiens)	2.061
IAYSVRALR (listed as Homo sapiens)	3.755
KTFVQQKTL (listed as Homo sapiens)	261.178
LHNEKGLSL (listed as Homo sapiens)	1.219
LLLPESPSI (listed as Homo sapiens)	0.1781
SVYKYLKAK (listed as Homo sapiens)	8068.72
ETTSQVRKY (listed as Homo sapiens)	9.474
RTQITKVSLKK (listed as Homo sapiens)	2051.04
ALGNTVPAV (listed as Homo sapiens)	14.05

Sequence	AML/MPC
NLKEKKALF (listed as Homo sapiens)	8.968
IYAPHIRLS (listed as Homo sapiens)	230.392
ALPVALPSL (listed as Homo sapiens)	16.47
LELISFLPVL (listed as Homo sapiens) [LELlSFLPVL]	0.08993
KEIFLELRL (listed as Homo sapiens)	90.9946
APGAAGQRL (listed as Homo sapiens)	24.62
RLVSSTLLQK (listed as Homo sapiens)	1.091
NTSHLPLIY (listed as Homo sapiens)	405.694
GPQVRGSI (listed as Homo sapiens)	0.2444
SVQLLEQAIHK (listed as Homo sapiens)	56.53
YSHHSGLEY (listed as Homo sapiens)	91.17
LPSHSLLI (listed as Homo sapiens)	2.068
LGISLTLKY (listed as Homo sapiens)	6.313
NFCMLHQSI (listed as Homo sapiens)	0.5484
GSLDFQRGW (listed as Homo sapiens)	19.21
TVEEYLVNI (listed as Homo sapiens)	1.912
DQVIRLAGL (listed as Homo sapiens)	246.7
SLWGQPAEA (listed as Homo sapiens)	249.8
RMVAYLQQL (listed as Homo sapiens)	1.996
LSSRLPLGK (listed as Homo sapiens)	3.016
HHLVETLKF (listed as Homo sapiens)	66.82
VILIPLPPK (listed as Homo sapiens)	0.2623
IYQFIMDRF (listed as Homo sapiens)	86.12
ISSWLISSL (listed as Homo sapiens)	4.706
SLLIIPKKK (listed as Homo sapiens)	5.216
ILFQNSALK (listed as Homo sapiens)	16.93

Sequence	AML/MPC
APDKKITL (listed as Homo sapiens)	55.03
ILASHNLTV (listed as Homo sapiens)	0.8366
IAAPILHV (listed as Homo sapiens)	26.19
SPYRTPVL (listed as Homo sapiens)	8.928
PRGFLSAL (listed as Homo sapiens)	4.511
SLQILVSSL (listed as Homo sapiens)	6.71
VTFKLSLF (listed as Homo sapiens)	0.89
SPVVHQSL (listed as Homo sapiens)	52.98
GTLQGIRAW (listed as Homo sapiens)	1098.148
IGNPILRVL (listed as Homo sapiens)	95.0262
PLPIVPAL (listed as Homo sapiens)	0.6021
TLNQGINVYI (listed as Homo sapiens)	9.544
RSASSATQVHK (listed as Homo sapiens)	21.15
HLLSETPQL (listed as Homo sapiens)	13.51
KIKNKTKNK (listed as Homo sapiens)	0.8468
ILDLESRY (listed as Homo sapiens)	16.434
VPAPAQAI (listed as Homo sapiens)	0.08564
GLRLLHVSL (listed as Homo sapiens)	3.328
MIGIKRLL (listed as Homo sapiens)	2.454
TLKLKKIFF (listed as Homo sapiens)	2.527
IQLTSVHLL (listed as Homo sapiens)	0.3646
SPARALPSL (listed as Homo sapiens)	1.404
SPQSGPAL (listed as Homo sapiens)	0.5407
IRMKAQAL (listed as Homo sapiens)	0.1413
SEAEAAKNAL (listed as Homo sapiens)	15.85
NPLQLSLSI (listed as Homo sapiens)	0.4889

Sequence	AML/MPC
IPLNPFSSL (listed as Homo sapiens)	2.675
ALLPAVPSL (listed as Homo sapiens)	1261.102
AQDIILQAV (listed as Homo sapiens)	230.14
LSDRQLSL (listed as Homo sapiens)	1.037
KILDVNLRI (listed as Homo sapiens)	8.266
VVFDKSDLAKY (listed as Homo sapiens)	9.216
SGKLRVAL (listed as Homo sapiens)	277.184
ISNKVPKLF (listed as Homo sapiens)	19.42
RLEVRKVIL (listed as Homo sapiens)	0.6197
ILRSPLKW (listed as Homo sapiens)	56.7804
ITSSAVTTALK (listed as Homo sapiens)	2.018
APAPPPVAV (listed as Homo sapiens)	344.2
LSWGYFLFK (listed as Homo sapiens)	2.097
RPRGPRTAP (listed as Homo sapiens)	29.95
TVRGDVSSL (listed as Homo sapiens)	9.689
LTVPLSVFW (listed as Homo sapiens)	1.193
RQISVQASL (listed as Homo sapiens)	0.1431
VVFPFPVNK (listed as Homo sapiens)	1449.166
IVATGSLLK (listed as Homo sapiens)	0.5067
SNLIRTGSH (listed as Homo sapiens)	0.8344
SSSPVRGPSV (listed as Homo sapiens)	113.1364
AGDIIARLI (listed as Homo sapiens)	1.817
ILKKNISI (listed as Homo sapiens)	22.54
KLNQAFLVL (listed as Homo sapiens)	1.82
ERVYIRASL (listed as Homo sapiens)	7.705
ALDPLLLRI (listed as Homo sapiens)	9.564

Sequence	AML/MPC
PARPAGPL (listed as Homo sapiens)	0.831
CLRIGPVTL (listed as Homo sapiens)	2.363
IASPIALL (listed as Homo sapiens)	20.11
KLLEKAFSI (listed as Homo sapiens)	20.38
NQKKVRIL (listed as Homo sapiens)	0.4568
TSRLPKIQK (listed as Homo sapiens)	0.5367
SPQSAAAEL (listed as Homo sapiens)	59.62
NPKLKDIL (listed as Homo sapiens)	1.979
LPSFSHFLLL (listed as Homo sapiens)	2.751
LSTGHLSTV (listed as Homo sapiens)	45.7274
TQAPPNVVL (listed as Homo sapiens)	11.86
LPRNKPLL (listed as Homo sapiens)	6.213
VSFPDVRKV (listed as Homo sapiens)	9.648
NLKKREIL (listed as Homo sapiens)	1.722
KLQDKEIGL (listed as Homo sapiens)	343.936
APRGTAAL (listed as Homo sapiens)	17.29
SASSATQVHK (listed as Homo sapiens)	22.05
KIKVFSKVY (listed as Homo sapiens)	0.5638
LRKAVDPIL (listed as Homo sapiens)	3.901
DRGILRNLL (listed as Homo sapiens)	1.754
TLRSPGSSL (listed as Homo sapiens)	11.27
AVLLPKPPK (listed as Homo sapiens)	0.5454
